Source: paper PMC11730240
These are yes or no findings as the source states them, for the method shown. In cells and extracts the contact can be indirect. Some entries that bind do so weakly or less than the wild type.

By UniProt entry, the sequences of proteins in these tests, tags left out.
UniProt P01106: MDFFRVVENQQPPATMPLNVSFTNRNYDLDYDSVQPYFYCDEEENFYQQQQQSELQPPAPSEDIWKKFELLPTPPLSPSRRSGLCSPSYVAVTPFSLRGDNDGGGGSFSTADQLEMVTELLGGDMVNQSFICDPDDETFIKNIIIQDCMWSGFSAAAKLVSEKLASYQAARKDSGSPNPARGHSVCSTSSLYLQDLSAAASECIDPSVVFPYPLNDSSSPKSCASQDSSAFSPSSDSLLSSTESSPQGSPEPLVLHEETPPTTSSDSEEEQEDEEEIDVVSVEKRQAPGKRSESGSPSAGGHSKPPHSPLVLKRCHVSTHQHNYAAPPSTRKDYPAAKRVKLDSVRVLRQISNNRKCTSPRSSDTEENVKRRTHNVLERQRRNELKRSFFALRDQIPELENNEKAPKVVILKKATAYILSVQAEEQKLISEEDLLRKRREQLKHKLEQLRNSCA

Biological target: T1, CREPT, endogenous in human colon cancer cells (human (endogenous in HCT116 and DLD-1)) (UniProt Q9NQG5)
T1 sequence: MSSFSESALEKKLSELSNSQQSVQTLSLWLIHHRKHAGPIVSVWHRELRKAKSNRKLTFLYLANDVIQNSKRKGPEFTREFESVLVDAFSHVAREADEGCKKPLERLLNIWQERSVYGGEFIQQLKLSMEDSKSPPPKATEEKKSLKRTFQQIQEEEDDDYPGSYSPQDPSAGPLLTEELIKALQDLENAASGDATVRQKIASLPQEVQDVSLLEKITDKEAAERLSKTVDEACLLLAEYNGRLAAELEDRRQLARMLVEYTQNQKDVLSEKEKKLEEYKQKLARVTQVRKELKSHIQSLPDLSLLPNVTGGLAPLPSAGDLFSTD
Experiment: co-IP; endogenous proteins, anti-CREPT antibody, RIPA lysis; cells released from double thymidine block for the indicated times

MYC, endogenous in human colon cancer cells (from UniProt P01106 1-454)
binding: binds
